Measured values reported in PubChem BioAssay AID186 (DTP/NCI, 2004).
The mice bore no tumour; each value counts animals alive of those treated. Survivors were counted at the toxicity check, usually on the fifth day, unless a day is given; later deaths do not show. Schedule codes are those of the source, read here as Q, the interval in days (D) or hours (H), X, the number of doses. Marks such as (2×) stand for listed records that agree. Some entries were tested several times; the results are listed from low to high.

Tested on: B6D2F1 mice, nontumored toxicity test, survival
Assay: NCI In Vivo Anticancer Drug Screen. Data for tumor model Nontumored Animals (Toxicity Test) in B6D2F1 (BDF1) mice
[1] = dose: 32.0 mg/kg/injection, schedule: Q01DX009 (ip), vehicle: saline
[2] = dose: 64.0 mg/kg/injection, schedule: Q01DX009 (ip), vehicle: saline
[3] = dose: 64.0 mg/kg/injection, schedule: Q01DX009 (oral), vehicle: saline
[4] = dose: 128.0 mg/kg/injection, schedule: Q01DX009 (ip), vehicle: saline
[5] = dose: 128.0 mg/kg/injection, schedule: Q01DX009 (oral), vehicle: saline
[6] = dose: 256.0 mg/kg/injection, schedule: Q01DX009 (ip), vehicle: saline
[7] = dose: 256.0 mg/kg/injection, schedule: Q01DX009 (oral), vehicle: saline

Compound: CS(C)=O
- survivor count (dose: 0.6 grams/kg/injection, schedule: Q01DX001 (ip), vehicle: DMSO): 10 of 10
- survivor count (dose: 0.6 grams/kg/injection, schedule: Q01DX001 (ip), vehicle: other): 10 of 10
- survivor count (dose: 0.8 grams/kg/injection, schedule: Q01DX001 (ip), vehicle: other): 10 of 10
- survivor count (dose: 1.2 grams/kg/injection, schedule: Q01DX001 (ip), vehicle: other): 10 of 10
- survivor count (dose: 1.3 grams/kg/injection, schedule: Q01DX001 (ip), vehicle: DMSO): 10 of 10
- survivor count (dose: 1.6 grams/kg/injection, schedule: Q01DX001 (ip), vehicle: other): 10 of 10
- survivor count (dose: 2.3 grams/kg/injection, schedule: Q01DX001 (ip), vehicle: other): 10 of 10
- survivor count (dose: 2.5 grams/kg/injection, schedule: Q01DX001 (ip), vehicle: DMSO): 10 of 10
- survivor count (dose: 3.1 grams/kg/injection, schedule: Q01DX001 (ip), vehicle: other): 10 of 10
- survivor count (dose: 4.7 grams/kg/injection, schedule: Q01DX001 (ip), vehicle: other): 10 of 10
- survivor count (dose: 5.0 grams/kg/injection, schedule: Q01DX001 (ip), vehicle: DMSO): 10 of 10
- survivor count (dose: 5.0 grams/kg/injection, schedule: Q01DX002 (ip), vehicle: DMSO): 9 of 10
- survivor count (dose: 5.0 grams/kg/injection, schedule: Q01DX003 (ip), vehicle: DMSO): 8 of 10
- survivor count (dose: 5.0 grams/kg/injection, schedule: Q01DX004 (ip), vehicle: DMSO): 4 of 10
- survivor count (dose: 5.0 grams/kg/injection, schedule: Q01DX005 (ip), vehicle: DMSO): 7 of 10
- survivor count (dose: 5.0 grams/kg/injection, schedule: Q01DX006 (ip), vehicle: DMSO): 10 of 10
- survivor count (dose: 5.0 grams/kg/injection, schedule: Q01DX007 (ip), vehicle: DMSO): 7 of 10
- survivor count (dose: 5.0 grams/kg/injection, schedule: Q01DX008 (ip), vehicle: DMSO): 8 of 10
- survivor count (dose: 5.0 grams/kg/injection, schedule: Q01DX009 (ip), vehicle: DMSO): 5 of 10
- survivor count (dose: 6.3 grams/kg/injection, schedule: Q01DX001 (ip), vehicle: other): 10 of 10
- survivor count (dose: 9.4 grams/kg/injection, schedule: Q01DX001 (ip), vehicle: other): 10 of 10

Compound: O=c1cnn(C2OC(CO)C(O)C2O)c(=O)[nH]1 (stereo not drawn)
- survivor count [1]: 8 of 8
- survivor count (dose: 32.0 mg/kg/injection, schedule: Q01DX009 (oral), vehicle: saline): 8 of 8
- survivor count [2]: 8 of 8
- survivor count [3]: 8 of 8
- survivor count [4]: 8 of 8
- survivor count [5]: 8 of 8
- survivor count (dose: 128.0 mg/kg/injection, schedule: Q03HX016 (ip), vehicle: saline): 8 of 8
- survivor count (dose: 128.0 mg/kg/injection, schedule: Q03HX016 (oral), vehicle: saline): 8 of 8
- survivor count [6]: 8 of 8
- survivor count [7]: 8 of 8
- survivor count (dose: 256.0 mg/kg/injection, schedule: Q03HX016 (ip), vehicle: saline): 7 of 8
- survivor count (dose: 256.0 mg/kg/injection, schedule: Q03HX016 (oral), vehicle: saline): 7 of 8
- survivor count (dose: 512.0 mg/kg/injection, schedule: Q03HX016 (ip), vehicle: saline): 7 of 7
- survivor count (dose: 512.0 mg/kg/injection, schedule: Q03HX016 (oral), vehicle: saline): 8 of 8
- survivor count (dose: 1024.0 mg/kg/injection, schedule: Q03HX016 (ip), vehicle: saline): 7 of 7
- survivor count (dose: 1024.0 mg/kg/injection, schedule: Q03HX016 (oral), vehicle: saline): 6 of 8
- survivor count (dose: 2048.0 mg/kg/injection, schedule: Q03HX016 (ip), vehicle: saline): 6 of 8
- survivor count (dose: 2048.0 mg/kg/injection, schedule: Q03HX016 (oral), vehicle: saline): 5 of 8

Compound: COC1=C2C[C@H](C)C[C@H](OC)[C@H](O)[C@@H](C)/C=C(\C)[C@H](OC(N)=O)[C@H](OC)/C=C\C=C(/C)C(=O)NC(=C(/C=N/N3CCN(C)CC3)C1=O)C2=O
- survivor count (dose: 1.0 mg/kg/injection, schedule: Q01DX001 (ip), vehicle: saline): 2 of 2
- survivor count (dose: 10.0 mg/kg/injection, schedule: Q01DX001 (ip), vehicle: saline): 2 of 2
- survivor count (dose: 100.0 mg/kg/injection, schedule: Q01DX001 (ip), vehicle: saline): 2 of 2

Compound: Cc1[nH]c(=O)[nH]c(=O)c1N(CCF)CCCl
- survivor count (dose: 16.0 mg/kg/injection, schedule: Q04DX003 (ip), vehicle: acid diluted with saline): 8 of 8
- survivor count (dose: 16.0 mg/kg/injection, schedule: Q04DX003 (ip), vehicle: saline with Tween-80): 8 of 8
- survivor count (dose: 32.0 mg/kg/injection, schedule: Q04DX003 (ip), vehicle: acid diluted with saline): 8 of 8
- survivor count (dose: 32.0 mg/kg/injection, schedule: Q04DX003 (ip), vehicle: saline with Tween-80): 8 of 8
- survivor count (dose: 64.0 mg/kg/injection, schedule: Q04DX003 (ip), vehicle: acid diluted with saline): 8 of 8
- survivor count (dose: 64.0 mg/kg/injection, schedule: Q04DX003 (ip), vehicle: saline with Tween-80): 7 of 8
- survivor count (dose: 128.0 mg/kg/injection, schedule: Q04DX003 (ip), vehicle: acid diluted with saline): 8 of 8
- survivor count (dose: 128.0 mg/kg/injection, schedule: Q04DX003 (ip), vehicle: saline with Tween-80): 0 of 8
- survivor count (dose: 256.0 mg/kg/injection, schedule: Q04DX003 (ip), vehicle: acid diluted with saline): 7 of 8
- survivor count (dose: 256.0 mg/kg/injection, schedule: Q04DX003 (ip), vehicle: saline with Tween-80): 0 of 8

Compound: COc1cc2cc3c4cc(OC)c(OC)cc4cc[n+]3c(C)c2cc1OC
- survivor count (dose: 8.0 mg/kg/injection, schedule: Q03HX008 (ip), vehicle: saline): 6 of 6
- survivor count (dose: 8.0 mg/kg/injection, schedule: Q03HX024 (ip), vehicle: saline): 6 of 6 (2×)
- survivor count (dose: 16.0 mg/kg/injection, schedule: Q03HX008 (ip), vehicle: saline): 6 of 6 (2×)
- survivor count (dose: 16.0 mg/kg/injection, schedule: Q03HX024 (ip), vehicle: saline): 6 of 6 (2×)
- survivor count [1]: 6 of 6
- survivor count (dose: 32.0 mg/kg/injection, schedule: Q03HX008 (ip), vehicle: saline): 6 of 6 (2×)
- survivor count (dose: 32.0 mg/kg/injection, schedule: Q03HX024 (ip), vehicle: saline): 6 of 6 (2×)
- survivor count (dose: 64.0 mg/kg/injection, schedule: Q01DX001 (ip), vehicle: saline): 6 of 6
- survivor count [2]: 6 of 6 (2×)
- survivor count [3]: 5 of 6
- survivor count (dose: 64.0 mg/kg/injection, schedule: Q01DX009 (sc), vehicle: saline): 6 of 6 (2×)
- survivor count (dose: 64.0 mg/kg/injection, schedule: Q03HX008 (ip), vehicle: saline): 5 of 6 and 6 of 6
- survivor count (dose: 64.0 mg/kg/injection, schedule: Q03HX024 (ip), vehicle: saline): 4 of 6 and 6 of 6
- survivor count (dose: 64.0 mg/kg/injection, schedule: Q04DX003 (ip), vehicle: saline): 6 of 6
- survivor count (dose: 64.0 mg/kg/injection, schedule: Q08DX002 (ip), vehicle: saline): 6 of 6
- survivor count (dose: 102.4 mg/kg/injection, schedule: Q01DX009 (ip), vehicle: saline): 1 of 6
- survivor count (dose: 102.4 mg/kg/injection, schedule: Q04DX003 (ip), vehicle: saline): 6 of 6
- survivor count (dose: 128.0 mg/kg/injection, schedule: Q01DX001 (ip), vehicle: saline): 6 of 6 (2×)
- survivor count [4]: 5 of 6 and 6 of 6
- survivor count [5]: 6 of 6
- survivor count (dose: 128.0 mg/kg/injection, schedule: Q01DX009 (sc), vehicle: saline): 6 of 6 (2×)
- survivor count (dose: 128.0 mg/kg/injection, schedule: Q03HX008 (ip), vehicle: saline): 6 of 6 (2×)
- survivor count (dose: 128.0 mg/kg/injection, schedule: Q03HX024 (ip), vehicle: saline): 6 of 6 (2×)
- survivor count (dose: 128.0 mg/kg/injection, schedule: Q04DX003 (ip), vehicle: saline): 6 of 6 (2×)
- survivor count (dose: 128.0 mg/kg/injection, schedule: Q08DX002 (ip), vehicle: saline): 6 of 6 (2×)
- survivor count (dose: 204.8 mg/kg/injection, schedule: Q08DX002 (ip), vehicle: saline): 6 of 6
- survivor count (dose: 256.0 mg/kg/injection, schedule: Q01DX001 (ip), vehicle: saline): 5 of 6 and 6 of 6
- survivor count [6]: 6 of 6 (2×)
- survivor count [7]: 6 of 6
- survivor count (dose: 256.0 mg/kg/injection, schedule: Q01DX009 (sc), vehicle: saline): 6 of 6 (2×)
- survivor count (dose: 256.0 mg/kg/injection, schedule: Q03HX008 (ip), vehicle: saline): 3 of 6
- survivor count (dose: 256.0 mg/kg/injection, schedule: Q03HX024 (ip), vehicle: saline): 3 of 6
- survivor count (dose: 256.0 mg/kg/injection, schedule: Q04DX003 (ip), vehicle: saline): 6 of 6 (2×)
- survivor count (dose: 256.0 mg/kg/injection, schedule: Q08DX002 (ip), vehicle: saline): 5 of 6 and 6 of 6
- survivor count (dose: 512.0 mg/kg/injection, schedule: Q01DX001 (ip), vehicle: saline): 6 of 6 (2×)
- survivor count (dose: 512.0 mg/kg/injection, schedule: Q01DX009 (ip), vehicle: saline): 4 of 6 (2×)
- survivor count (dose: 512.0 mg/kg/injection, schedule: Q01DX009 (oral), vehicle: saline): 6 of 6
- survivor count (dose: 512.0 mg/kg/injection, schedule: Q01DX009 (sc), vehicle: saline): 5 of 6 and 6 of 6
- survivor count (dose: 512.0 mg/kg/injection, schedule: Q04DX003 (ip), vehicle: saline): 6 of 6 (2×)
- survivor count (dose: 512.0 mg/kg/injection, schedule: Q08DX002 (ip), vehicle: saline): 6 of 6 (2×)
- survivor count (dose: 1024.0 mg/kg/injection, schedule: Q01DX001 (ip), vehicle: saline): 5 of 6 and 6 of 6
- survivor count (dose: 1024.0 mg/kg/injection, schedule: Q01DX009 (oral), vehicle: saline): 6 of 6
- survivor count (dose: 1024.0 mg/kg/injection, schedule: Q01DX009 (sc), vehicle: saline): 6 of 6 (2×)
- survivor count (dose: 1024.0 mg/kg/injection, schedule: Q04DX003 (ip), vehicle: saline): 6 of 6
- survivor count (dose: 1024.0 mg/kg/injection, schedule: Q08DX002 (ip), vehicle: saline): 6 of 6 (2×)
- survivor count (dose: 2048.0 mg/kg/injection, schedule: Q01DX001 (ip), vehicle: saline): 5 of 6
- survivor count (dose: 2048.0 mg/kg/injection, schedule: Q01DX009 (sc), vehicle: saline): 6 of 6
- survivor count (dose: 2048.0 mg/kg/injection, schedule: Q04DX003 (ip), vehicle: saline): 3 of 6

Compound: O=c1[nH]cc(N(CCCl)CCCl)c(=O)[nH]1
- survivor count (dose: 2.4 mg/kg/injection, schedule: Q01DX001 (ip), vehicle: gum acacia): 10 of 10
- survivor count (dose: 3.6 mg/kg/injection, schedule: Q01DX001 (ip), vehicle: gum acacia): 10 of 10
- survivor count (dose: 5.4 mg/kg/injection, schedule: Q01DX001 (ip), vehicle: gum acacia): 10 of 10
